From the supplement of paper PMC4604168 (melanoma cell lines)
This is one part of the list. Many values rest on one well or one pass, so single values are uncertain.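 The apoptosis fraction was the count of cleaved-PARP antibody-stained nuclei relative to all DNA-stained nuclei, imaged in 1,536-well plates. Screening doses were set so most cells survived, and baseline and induced cleaved-PARP levels vary greatly across cell lines.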

Tested on: MZ2-MEL
Assay: cleaved PARP positive nuclei fraction relative to DMSO control; melanoma cells; higher = more apoptosis
Details: library dose: low library concentration; 72 h

| Structure (SMILES) | cleaved PARP positive nuclei fraction [%] |
| --- | --- |
| CO[C@H]1C[C@@H]2CC[C@@H](C)[C@@](O)(O2)C(=O)C(=O)N2CCCC[C@H]2C(=O)O[C@H]([C@H](C)C[C@@H]2CC[C@@H](OCCO)[C@H](OC)C2)CC(=O)[C@H](C)/C=C(\C)[C@@H](O)[C@@H](OC)C(=O)[C@H](C)C[C@H](C)/C=C/C=C/C=C/1C [everolimus] + Oc1nc(-c2ccc(C(F)(F)F)cc2)nc2c1CSCC2 [XAV939] (first compound 0.02 µM, partner dose 2 µM) | 123 |
| CO[C@H]1C[C@@H]2CC[C@@H](C)[C@@](O)(O2)C(=O)C(=O)N2CCCC[C@H]2C(=O)O[C@H]([C@H](C)C[C@@H]2CC[C@@H](OCCO)[C@H](OC)C2)CC(=O)[C@H](C)/C=C(\C)[C@@H](O)[C@@H](OC)C(=O)[C@H](C)C[C@H](C)/C=C/C=C/C=C/1C [everolimus] + Cc1nc(Nc2ncc(C(=O)Nc3c(C)cccc3Cl)s2)cc(N2CCN(CCO)CC2)n1 [dasatanib] (first compound 0.02 µM, partner dose 0.004 µM) | 33.3 |
| CO[C@H]1C[C@@H]2CC[C@@H](C)[C@@](O)(O2)C(=O)C(=O)N2CCCC[C@H]2C(=O)O[C@H]([C@H](C)C[C@@H]2CC[C@@H](OCCO)[C@H](OC)C2)CC(=O)[C@H](C)/C=C(\C)[C@@H](O)[C@@H](OC)C(=O)[C@H](C)C[C@H](C)/C=C/C=C/C=C/1C [everolimus] + CC1(C)NC(=O)N(c2ccc([N+](=O)[O-])c(C(F)(F)F)c2)C1=O [nilutamide] (first compound 0.02 µM, partner dose 1 µM) | 152 |
| CO[C@H]1C[C@@H]2CC[C@@H](C)[C@@](O)(O2)C(=O)C(=O)N2CCCC[C@H]2C(=O)O[C@H]([C@H](C)C[C@@H]2CC[C@@H](OCCO)[C@H](OC)C2)CC(=O)[C@H](C)/C=C(\C)[C@@H](O)[C@@H](OC)C(=O)[C@H](C)C[C@H](C)/C=C/C=C/C=C/1C [everolimus] + Nc1cccc2c1CN(C1CCC(=O)NC1=O)C2=O [lenalidomide] (first compound 0.02 µM, partner dose 1 µM) | 113 |
| CO[C@H]1C[C@@H]2CC[C@@H](C)[C@@](O)(O2)C(=O)C(=O)N2CCCC[C@H]2C(=O)O[C@H]([C@H](C)C[C@@H]2CC[C@@H](OCCO)[C@H](OC)C2)CC(=O)[C@H](C)/C=C(\C)[C@@H](O)[C@@H](OC)C(=O)[C@H](C)C[C@H](C)/C=C/C=C/C=C/1C [everolimus] + Nc1nc(F)nc2c1ncn2[C@@H]1O[C@H](CO)[C@@H](O)[C@@H]1O [fludarabine] (first compound 0.02 µM, partner dose 0.2 µM) | 113 |
| CO[C@H]1C[C@@H]2CC[C@@H](C)[C@@](O)(O2)C(=O)C(=O)N2CCCC[C@H]2C(=O)O[C@H]([C@H](C)C[C@@H]2CC[C@@H](OCCO)[C@H](OC)C2)CC(=O)[C@H](C)/C=C(\C)[C@@H](O)[C@@H](OC)C(=O)[C@H](C)C[C@H](C)/C=C/C=C/C=C/1C [everolimus] + C=CCn1c(=O)c2cnc(Nc3ccc(N4CCN(C)CC4)cc3)nc2n1-c1cccc(C(C)(C)O)n1 [MK1775] (first compound 0.02 µM, partner dose 0.02 µM) | 222 |
| CO[C@H]1C[C@@H]2CC[C@@H](C)[C@@](O)(O2)C(=O)C(=O)N2CCCC[C@H]2C(=O)O[C@H]([C@H](C)C[C@@H]2CC[C@@H](OCCO)[C@H](OC)C2)CC(=O)[C@H](C)/C=C(\C)[C@@H](O)[C@@H](OC)C(=O)[C@H](C)C[C@H](C)/C=C/C=C/C=C/1C [everolimus] + Nc1ncn([C@H]2C[C@H](O)[C@@H](CO)O2)c(=O)n1 [decitabine] (first compound 0.02 µM, partner dose 0.1 µM) | 101 |
| CO[C@H]1C[C@@H]2CC[C@@H](C)[C@@](O)(O2)C(=O)C(=O)N2CCCC[C@H]2C(=O)O[C@H]([C@H](C)C[C@@H]2CC[C@@H](OCCO)[C@H](OC)C2)CC(=O)[C@H](C)/C=C(\C)[C@@H](O)[C@@H](OC)C(=O)[C@H](C)C[C@H](C)/C=C/C=C/C=C/1C [everolimus] + CC(C)(C)c1cnc(CSc2cnc(NC(=O)C3CCNCC3)s2)o1 [SNS-032] (first compound 0.02 µM, partner dose 0.01 µM) | 118 |
| CO[C@H]1C[C@@H]2CC[C@@H](C)[C@@](O)(O2)C(=O)C(=O)N2CCCC[C@H]2C(=O)O[C@H]([C@H](C)C[C@@H]2CC[C@@H](OCCO)[C@H](OC)C2)CC(=O)[C@H](C)/C=C(\C)[C@@H](O)[C@@H](OC)C(=O)[C@H](C)C[C@H](C)/C=C/C=C/C=C/1C [everolimus] + Cc1cc([N+](=O)[O-])ccc1NS(=O)(=O)c1cc(Cl)ccc1Cl [FH535] (first compound 0.02 µM, partner dose 1 µM) | 227 |
| CO[C@H]1C[C@@H]2CC[C@@H](C)[C@@](O)(O2)C(=O)C(=O)N2CCCC[C@H]2C(=O)O[C@H]([C@H](C)C[C@@H]2CC[C@@H](OCCO)[C@H](OC)C2)CC(=O)[C@H](C)/C=C(\C)[C@@H](O)[C@@H](OC)C(=O)[C@H](C)C[C@H](C)/C=C/C=C/C=C/1C [everolimus] + O=C(O)c1ccc(-c2c[nH]c3ncc(-c4ccccc4)cc23)cc1C1CCCC1 [GSK650394] (first compound 0.02 µM, partner dose 0.16 µM) | 122 |
| CO[C@H]1C[C@@H]2CC[C@@H](C)[C@@](O)(O2)C(=O)C(=O)N2CCCC[C@H]2C(=O)O[C@H]([C@H](C)C[C@@H]2CC[C@@H](OCCO)[C@H](OC)C2)CC(=O)[C@H](C)/C=C(\C)[C@@H](O)[C@@H](OC)C(=O)[C@H](C)C[C@H](C)/C=C/C=C/C=C/1C [everolimus] + COc1ccc(COc2ccc(Cc3cnc(N)nc3N)cc2OC)cc1 [GW2580] (first compound 0.02 µM, partner dose 1 µM) | 66 |
| CO[C@H]1C[C@@H]2CC[C@@H](C)[C@@](O)(O2)C(=O)C(=O)N2CCCC[C@H]2C(=O)O[C@H]([C@H](C)C[C@@H]2CC[C@@H](OCCO)[C@H](OC)C2)CC(=O)[C@H](C)/C=C(\C)[C@@H](O)[C@@H](OC)C(=O)[C@H](C)C[C@H](C)/C=C/C=C/C=C/1C [everolimus] + O=S(=O)(c1ccccc1)N(CC(F)(F)F)c1ccc(C(O)(C(F)(F)F)C(F)(F)F)cc1 [T0901317] (first compound 0.02 µM, partner dose 1.4 µM) | 133 |
| Cn1c(=O)n(-c2ccc(C(C)(C)C#N)cc2)c2c3cc(-c4cnc5ccccc5c4)ccc3ncc21 + CN1CCN(c2ccc3nc(-c4c(N)c5c(F)cccc5[nH]c4=O)[nH]c3c2)CC1 [Dovitinib] (first compound 0.004 µM, partner dose 0.1 µM) | 39.7 |
| CO[C@H]1C[C@@H]2CC[C@@H](C)[C@@](O)(O2)C(=O)C(=O)N2CCCC[C@H]2C(=O)O[C@H]([C@H](C)C[C@@H]2CC[C@@H](OCCO)[C@H](OC)C2)CC(=O)[C@H](C)/C=C(\C)[C@@H](O)[C@@H](OC)C(=O)[C@H](C)C[C@H](C)/C=C/C=C/C=C/1C [everolimus] + COc1cc(Nc2ncc(F)c(Nc3ccc4c(n3)NC(=O)C(C)(C)O4)n2)cc(OC)c1OC [Tamatinib] (first compound 0.02 µM, partner dose 0.4 µM) | 210 |
| CO[C@H]1C[C@@H]2CC[C@@H](C)[C@@](O)(O2)C(=O)C(=O)N2CCCC[C@H]2C(=O)O[C@H]([C@H](C)C[C@@H]2CC[C@@H](OCCO)[C@H](OC)C2)CC(=O)[C@H](C)/C=C(\C)[C@@H](O)[C@@H](OC)C(=O)[C@H](C)C[C@H](C)/C=C/C=C/C=C/1C [everolimus] + CO[C@@H]1[C@H](N(C)C(=O)c2ccccc2)C[C@H]2O[C@]1(C)n1c3ccccc3c3c4c(c5c6ccccc6n2c5c31)C(=O)NC4 [Midostaurin] (first compound 0.02 µM, partner dose 0.08 µM) | 172 |
| CO[C@H]1C[C@@H]2CC[C@@H](C)[C@@](O)(O2)C(=O)C(=O)N2CCCC[C@H]2C(=O)O[C@H]([C@H](C)C[C@@H]2CC[C@@H](OCCO)[C@H](OC)C2)CC(=O)[C@H](C)/C=C(\C)[C@@H](O)[C@@H](OC)C(=O)[C@H](C)C[C@H](C)/C=C/C=C/C=C/1C [everolimus] + CCN(CC)CCCCNc1ncc2cc(-c3cc(OC)cc(OC)c3)c(NC(=O)NC(C)(C)C)nc2n1 [PD173074] (first compound 0.02 µM, partner dose 0.1 µM) | 104 |
| CO[C@H]1C[C@@H]2CC[C@@H](C)[C@@](O)(O2)C(=O)C(=O)N2CCCC[C@H]2C(=O)O[C@H]([C@H](C)C[C@@H]2CC[C@@H](OCCO)[C@H](OC)C2)CC(=O)[C@H](C)/C=C(\C)[C@@H](O)[C@@H](OC)C(=O)[C@H](C)C[C@H](C)/C=C/C=C/C=C/1C [everolimus] + Cc1cc(N2CCOCC2)cc2[nH]c(-c3c(NC[C@@H](O)c4cccc(Cl)c4)cc[nH]c3=O)nc12 [BMS536924] (first compound 0.02 µM, partner dose 0.2 µM) | 279 |
| CO[C@H]1C[C@@H]2CC[C@@H](C)[C@@](O)(O2)C(=O)C(=O)N2CCCC[C@H]2C(=O)O[C@H]([C@H](C)C[C@@H]2CC[C@@H](OCCO)[C@H](OC)C2)CC(=O)[C@H](C)/C=C(\C)[C@@H](O)[C@@H](OC)C(=O)[C@H](C)C[C@H](C)/C=C/C=C/C=C/1C [everolimus] + Cn1cc(/C=C2\C(=O)Nc3cccnc32)c2ccccc21 [GW441756] (first compound 0.02 µM, partner dose 0.4 µM) | 206 |

Looked up one by one from the list above:

| Structure (SMILES) | cleaved PARP positive nuclei fraction [%] |
| --- | --- |
| CO[C@H]1C[C@@H]2CC[C@@H](C)[C@@](O)(O2)C(=O)C(=O)N2CCCC[C@H]2C(=O)O[C@H]([C@H](C)C[C@@H]2CC[C@@H](OCCO)[C@H](OC)C2)CC(=O)[C@H](C)/C=C(\C)[C@@H](O)[C@@H](OC)C(=O)[C@H](C)C[C@H](C)/C=C/C=C/C=C/1C [everolimus] + CO[C@@H]1[C@H](N(C)C(=O)c2ccccc2)C[C@H]2O[C@]1(C)n1c3ccccc3c3c4c(c5c6ccccc6n2c5c31)C(=O)NC4 [Midostaurin] (first compound 0.02 µM, partner dose 0.08 µM) | 172 |
| CO[C@H]1C[C@@H]2CC[C@@H](C)[C@@](O)(O2)C(=O)C(=O)N2CCCC[C@H]2C(=O)O[C@H]([C@H](C)C[C@@H]2CC[C@@H](OCCO)[C@H](OC)C2)CC(=O)[C@H](C)/C=C(\C)[C@@H](O)[C@@H](OC)C(=O)[C@H](C)C[C@H](C)/C=C/C=C/C=C/1C [everolimus] + CCN(CC)CCCCNc1ncc2cc(-c3cc(OC)cc(OC)c3)c(NC(=O)NC(C)(C)C)nc2n1 [PD173074] (first compound 0.02 µM, partner dose 0.1 µM) | 104 |
